This assay concerns the target T1, GST-fused RA domain of ARAP1 (aa 1179-1262) (mouse) (UniProt Q4LDD4).
T1 sequence: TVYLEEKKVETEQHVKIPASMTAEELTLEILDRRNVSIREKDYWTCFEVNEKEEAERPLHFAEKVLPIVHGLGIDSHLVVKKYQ
In words: pull-down; GST, GST-RA or GST-RA-PH held on glutathione Sepharose 4B beads; lysates of 293T cells transfected with SNAP-tagged GTPases (1% Triton X-100, 0.1 M Tris-HCl pH 7.5, 0.1 M NaCl, 10 mM MgCl2); 4 °C, 1 h; immunoblotting; only the target purified. In general terms: In western blotting, separated proteins are transferred to a membrane and probed.

Amino acid sequences for entries named in this document (tags omitted). A change or cut given only in a name is not applied to a line headed by its entry. Chains listed by the source or under a name are the forms on record and can include a tag or linker.
UniProt P61586: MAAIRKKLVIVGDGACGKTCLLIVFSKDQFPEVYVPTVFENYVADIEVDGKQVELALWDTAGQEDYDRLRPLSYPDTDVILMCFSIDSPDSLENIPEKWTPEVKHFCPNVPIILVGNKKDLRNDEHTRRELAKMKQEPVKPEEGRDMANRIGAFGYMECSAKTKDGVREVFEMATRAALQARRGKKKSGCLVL
SNAP-tagged RhoA N19 (inactive form of RhoA) (P61586, form named): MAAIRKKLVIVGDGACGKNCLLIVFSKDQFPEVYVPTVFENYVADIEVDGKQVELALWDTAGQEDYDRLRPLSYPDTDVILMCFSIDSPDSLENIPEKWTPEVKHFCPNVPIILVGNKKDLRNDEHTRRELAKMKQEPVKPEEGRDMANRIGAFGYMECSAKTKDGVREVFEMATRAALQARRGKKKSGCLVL

The source of these data is PMC12756398.

These are yes or no findings as the source states them, for the method shown. In cells and extracts the contact can be indirect. Some results given as binding are weak or reduced against the parent protein; the word gives no strength. Sequences can lack the tags named with a protein.

On to “SNAP-tagged RhoA N19 (inactive form of RhoA) (from UniProt P61586 1-193)”, for which the binding result is given as “binds”.
